US7115730
Results are given in words; binding and its absence hold for the method and conditions named. Some entries that bind do so weakly or less than the wild type.

Protein sequences, listed by entry. Tags and fused reporters are not part of them. Lines headed by an entry give the natural chain unless they say otherwise; changes in a name come on top. Residues count along the entry.
UniProt P32890, residues 22-124: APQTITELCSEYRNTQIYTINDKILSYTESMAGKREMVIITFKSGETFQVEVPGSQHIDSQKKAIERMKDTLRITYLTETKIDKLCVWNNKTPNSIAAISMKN
UniProt P06717: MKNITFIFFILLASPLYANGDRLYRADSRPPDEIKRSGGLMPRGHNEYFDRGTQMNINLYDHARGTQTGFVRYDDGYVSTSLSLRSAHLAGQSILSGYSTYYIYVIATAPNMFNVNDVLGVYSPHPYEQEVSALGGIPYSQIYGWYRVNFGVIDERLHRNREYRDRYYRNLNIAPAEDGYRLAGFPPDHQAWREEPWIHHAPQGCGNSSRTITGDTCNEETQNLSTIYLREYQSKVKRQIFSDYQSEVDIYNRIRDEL

Target: E. coli heat labile toxin subunit B (B pentamer) (Escherichia coli) (UniProt P32890)
Assay: gel filtration on Superdex 200HR column, assembly of A subunit with B pentamer

## E. coli heat labile toxin subunit A, wild-type (A subunit of wild-type LT) (from UniProt P06717 19-258) (enzyme)
  binding: binds
